A short description of the data set: in vitro. The note with it: PAMPA, pH 7.4.

Structures are written as SMILES.

Consider `CC(C)NCC(O)COc1ccc(CC(N)=O)cc1` (stereo not shown) [Atenolol], for which the apparent permeability (Papp) at 5 h, 10 μM amounted to 0.17 ×10⁻⁶ cm/s.

As a reminder, the Papp is the rate of passage across a membrane or cell layer, normalised by area and donor concentration.

Values taken from US9126933B2, “Soft PDE4 inhibitors” (Amakem NV, priority 2011, dated 2015).
